Earlier results on 1 compound are cited in PMC7307925, “Human Serum Albumin Binding in a Vial: A Novel UV-pH Titration Method To Assist Drug Design” (Journal of Medicinal Chemistry, 2020).

In the series the test system is human serum albumin (HSA). The note with it: 49 (SI ref 1,2); cited from earlier work.

Molecules are shown by their SMILES.

Turning to `COC(=O)C1=C(C)NC(C)=C(C(=O)OC)C1c1ccccc1[N+](=O)[O-]` [Nifedipine], the “HSA% (HPLC), literature data” value is listed as 69.5%.
